From article PMC10660311 (ACS Chemical Biology, 2023)

How the values were obtained:
[1] = general procedure: Fmoc solid-phase peptide synthesis; Tentagel S AC; conditions: whole synthesis
[2] = Fmoc solid-phase peptide synthesis; Tentagel S AC; conditions: whole synthesis, scale of the general procedure 25-50 μmol; run 1

Substance | isolated mass ([1]; scale 50 μmol) [mg] | isolated yield ([1]; scale 50 μmol) [%] | isolated mass ([1]; scale 25 μmol) [mg] | isolated yield ([1]; scale 25 μmol) [%] | other results
CF-Arg-Pro-Thr-Pro-Cys-Ala-Pro-Leu-Ala-Glu-Cys(5-O-adenosine-diphosphate-α-D-ribosyl)-Lys-Gly-Ser-Leu-OH | 2.4 | 2.0 | – | – | –
CF-Arg-Pro-Thr-Pro-Cys(5-O-adenosine-diphosphate-α-D-ribosyl)-Ala-Pro-Leu-Ala-OH | – | – | 3.86 | 8.3 | –
CF-Pro-Leu-Ala-Glu-Cys(5-O-adenosine-diphosphate-α-D-ribosyl)-Lys-Gly-Ser-Leu-OH | – | – | 1.85 | 4.0 | –
CF-Arg-Pro-Thr-Pro-Cys(5-O-adenosine-diphosphate-α-D-ribosyl)-Ala-Pro-Leu-Ala-Glu-Cys-Lys-Gly-Ser-Leu-OH | 2.8 | 2.3 | – | – | –
CF-RPTPC(ADPr)APLAEC(ADPr)KGSL-OH | – | – | – | – | isolated mass [1]: 6.72 mg; outcome ([1]; scale of the general procedure 25-50 μmol): Target peptide 1 bearing two ADP-ribosyl-Cys residues, however, could not be prepared in this way; isolated yield ([1]; scale of the general procedure 25-50 μmol, run 2): 4.5%; isolated yield [2]: 4.4%
